## Primary screen of a compound library

By UniProt entry, the sequences of proteins in these tests, tags left out.
UniProt E9BF75, entry or part of it: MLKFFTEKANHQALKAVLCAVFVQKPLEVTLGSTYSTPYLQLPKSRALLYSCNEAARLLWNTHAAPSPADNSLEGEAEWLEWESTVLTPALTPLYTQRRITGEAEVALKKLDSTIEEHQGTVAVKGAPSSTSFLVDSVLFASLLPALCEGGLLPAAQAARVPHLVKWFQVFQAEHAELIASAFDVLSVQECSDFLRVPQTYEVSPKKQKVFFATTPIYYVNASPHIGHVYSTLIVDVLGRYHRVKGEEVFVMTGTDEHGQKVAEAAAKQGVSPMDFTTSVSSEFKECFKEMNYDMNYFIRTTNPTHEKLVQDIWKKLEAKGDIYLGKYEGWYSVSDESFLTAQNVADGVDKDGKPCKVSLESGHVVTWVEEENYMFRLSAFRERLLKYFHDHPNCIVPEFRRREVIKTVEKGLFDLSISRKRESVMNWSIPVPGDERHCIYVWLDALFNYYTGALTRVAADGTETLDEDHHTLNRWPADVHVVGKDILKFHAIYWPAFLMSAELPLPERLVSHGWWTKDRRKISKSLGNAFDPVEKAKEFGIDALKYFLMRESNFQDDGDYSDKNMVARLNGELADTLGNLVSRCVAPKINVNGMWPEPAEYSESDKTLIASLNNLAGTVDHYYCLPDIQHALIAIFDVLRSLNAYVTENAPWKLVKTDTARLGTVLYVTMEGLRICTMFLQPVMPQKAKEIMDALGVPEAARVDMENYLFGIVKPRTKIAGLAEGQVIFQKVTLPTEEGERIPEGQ

All values are in %. How 0% and 100% were set is not recorded. Most values in the screen are low, and negative values occur. This is an unselected part of the compounds tested.

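Methionyl-tRNA synthetase (putative), Leishmania donovani (UniProt E9BF75). Primary screen of methionyl-tRNA synthetase; the read-out is not stated. The test concentration is not given. The values are filed as inhibition. About 68,000 compounds were tested under these conditions; 0.035% (about 24) showed 50% or more at least once.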

Compound	Inhibition
CC1CCN(S(=O)(=O)N2CCc3c(c(C(=O)O)nn3CC3CC3)C2)CC1	8.571%
CCOc1ccc(C2CCCN2Cc2nnnn2C2CC2)cc1 (configuration not stated)	11.61%
Cc1cc(OCC(=O)NS(=O)(=O)c2cccnc2)ccc1Cl	20.53%
CCOc1cccc(CNC(=O)NC2CC=CC2)c1OC(F)F	8.6%
CCN1C(=O)CCCC12CCCN(C(=O)c1occc1C)C2 (configuration not stated)	17.37%
CC(C)=CCN1CCN(Cc2nc3ccccc3[nH]2)[C@H]2CS(=O)(=O)C[C@H]21	14.78%
COc1ccnc(N2CCN(C(=O)CN3CCCC3=O)CC2)n1	11.81%
O=C(NCc1csc(-c2cccs2)n1)C1NCCc2[nH]cnc21 (configuration not stated)	11.06%
O=S(=O)(N1CCCCCC1)N1CCCN(CC2CCCO2)CC1 (configuration not stated)	-3.432%
Cn1c(CNc2c(F)cccc2-n2cccn2)cc(=O)n(C)c1=O	18.58%
O=S(=O)(Nc1c(F)cccc1N1CCCC1)c1cncc(F)c1	17.6%
COc1ccc2c(c1)CC(C1CCOCC1)N(C(=O)c1ccn(C)n1)C2 (configuration not stated)	15.58%
Cc1ccc(N2CCC3(CN(Cc4ccncc4)CCC3(F)F)C2)nn1 (configuration not stated)	5.464%
O=S1(=O)C[C@@H]2[C@H](C1)N(Cc1ccoc1)CCN2Cc1ccncc1	17.58%
CN(Cc1cccc(F)c1)Cc1nc2c(cnn2C)c(=O)[nH]1	4%
O=C(NCc1ccccc1-n1cccn1)N1CCN2CCCCC2C1 (configuration not stated)	20.28%
CCCc1cc(C(=O)N(C)Cc2ccc(OC)c3ncccc23)n(C)n1	14.89%
Cc1cc(NCC(=O)N(C)CC(F)(F)F)c(C(N)=O)cc1F	15.86%
O=C1NC2(CCN(CC(=O)N3CCOCC3)CC2)Nc2ccc(Br)cc21	9.627%
O=S(=O)(NCCC(O)c1cccs1)c1ccccc1 (configuration not stated)	11.51%
Cc1nc2cc(C(=O)N3C[C@@H](C(=O)O)[C@H](C4CC4)C3)ccc2[nH]1	13.77%
Cn1ccnc1C1CCN(CCC2CCOC2)CC1 (configuration not stated)	9.028%
Cc1ccc(C(=O)N2CCO[C@H]3[C@H](OCCN(C)C)CC[C@@H]32)cn1	15.74%
CCS(=O)(=O)N1CCC2(CCN(C(=O)c3cccs3)CC2)CC1	7.625%
Cc1nc(C)n(CC2CCCN2CCc2cccs2)n1 (configuration not stated)	13.27%
CCN(C)CC(C)Cn1cnc(-c2ccccc2)c1C (configuration not stated)	15.46%
O=S(=O)(c1cncc(F)c1)N1CCC2(CCOC2)C1 (configuration not stated)	14.56%
F[C@@H]1CN(CC2CC2)C[C@@H]1OCc1nc2cnccc2[nH]1	6.767%
Cc1ccc(C(=O)NCC(O)c2ccc(Cl)s2)c(=O)[nH]1 (configuration not stated)	13.17%
O=C(NC1CCCC1)NC1CCc2[nH]c(=O)ccc2C1 (configuration not stated)	10.73%
CS(=O)(=O)c1cn[nH]c1C1CCCN(C(=O)CN2CCOCC2)C1 (configuration not stated)	10.97%
CCCc1nc(C)cc(N2CCC3(CCC(=O)N(CCOC)C3)CC2)n1	17.47%
Cn1cc(-c2cnc(-c3ccnn3C)nc2)cc1C(=O)N1CCCC1	5.464%
CCOc1ccc(C(=O)N2Cc3cnc(CC)nc3C2)o1	12.29%
CCc1nc(C2CCCN2C(=O)c2cnns2)no1 (configuration not stated)	4.211%
CN(CCc1ccccn1)C(=O)CCC1CCCN(c2cnccn2)C1 (configuration not stated)	3.125%
Cc1nc(-c2cccs2)ccc1C(=O)N1CCN(CC(C)O)CC1 (configuration not stated)	5.651%
COCCOc1ccc(CNc2nc3ccccc3nc2N)cn1	14.64%
CC(C)(C)CN1CCCC12Cc1ccccc1CNC2=O (configuration not stated)	24%
Cc1cccc(CN2Cc3nccn3CC(CN3CCOCC3)C2)c1 (configuration not stated)	16%
COC(=O)Cn1nc(-c2ccccc2F)ccc1=O	3.523%
COc1cc(CN2CC(=O)N(c3ccc(C)cc3)CC2C)cc(OC)c1 (configuration not stated)	13.75%
COCCOCCC(=O)N1CCC(c2ccccc2C)C1 (configuration not stated)	6.948%
Cc1nn(C)c2cnn(Cc3ccc(C(=O)NCC4CCCO4)o3)c12 (configuration not stated)	8.355%
Cc1c(C(=O)NC(C)CC(=O)c2cccs2)cnn1C (configuration not stated)	9.91%
CN(Cc1nc2ccccc2[nH]1)C(=O)C(C)(C)n1cc(Cl)cn1	10.99%
N#Cc1cccc(N2CC3(CCN(C(=O)C4CC=CC4)C3)CC2=O)c1 (configuration not stated)	10.46%
CCC(=O)Nc1ccc(C(C)NC(=O)COCCOC)cc1 (configuration not stated)	13.38%
CN(C)CCOCC1CN(C(=O)c2ccccn2)Cc2ccnn2C1 (configuration not stated)	5.926%
Cc1ccc(CN2CCCC(c3nnc(CN4CCCC4)n3C)C2)s1 (configuration not stated)	18.73%
COCCc1noc(CNCC2CCCN2c2cccnn2)n1 (configuration not stated)	13.19%
O=C(NCCCn1cccn1)C1(c2cccc(Cl)c2)CC1	14.97%
O=C(CNC(=O)c1c[nH]c2ccccc12)NCCCn1ccnc1	12.23%
Oc1ccccc1CN1CCC(n2cc(-c3ccc(F)cc3)nn2)CC1	7.379%
COc1ccc2c(c1)CN(Cc1ccco1)C(=O)CCN2	10.14%
Cc1cnc(CN2CCOC(CNc3cccnn3)C2)cn1 (configuration not stated)	5.263%
CC(C)N1CC[C@@H]2[C@H](COCC3CC3)CN(C)C(=O)[C@@H]2CC1	4.261%
Cc1noc(C)c1CN1CCCC2(C1)CN(c1nncs1)CCO2 (configuration not stated)	14.07%
N#Cc1ccsc1NC(=O)CCN1CCn2c(nnc2C2CC2)C1	18.75%
CNc1cc(C2CCCNC2)nc(C)n1 (configuration not stated)	-30.31%
CCS(=O)(=O)c1ccc(N2CCC(NC(=O)c3ccccn3)CC2)cc1	-1.049%
CCc1cc(C(=O)N2CCCC(c3[nH]ncc3S(C)(=O)=O)C2)no1 (configuration not stated)	9.647%

Some entries from above, unchanged:

Compound	Inhibition
O=C(NCc1csc(-c2cccs2)n1)C1NCCc2[nH]cnc21 (configuration not stated)	11.06%
CCc1nc(C2CCCN2C(=O)c2cnns2)no1 (configuration not stated)	4.211%
CN(Cc1nc2ccccc2[nH]1)C(=O)C(C)(C)n1cc(Cl)cn1	10.99%

From ChEMBL document CHEMBL3988442, “University of Dundee, Small-Polar-MMV Screening Library” (2021).